PubChem BioAssay AID504808, Drosophila RNAi Screening Center – 2011
Purpose: 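Chromatin factors that keep E2F targets switched off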 (primary screen). Cells: Drosophila S2 cells. Reagents: long dsRNA against Drosophila genes. Read-out: 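Firefly luciferase driven by E2F sites, normalised to Renilla luciferase on the same minimal promoter, measured by plate reader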. Reading the numbers: E2F firefly: higher = more E2F reporter activity; Renilla normaliser: higher = more normaliser reporter signal. Active means: 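Called active if the normalised E2F reporter went up by over 50%; the cutoff is arbitrary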.
The screen tested about 21,000 reagents; below is a random part of those with a known target gene and a result. Of all reagents, 18 (0.084%) were called active. 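Raw counts without plate normalisation, one of two replicates; the ratio scores behind the calls were not deposited.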 Unmarked entries are inactive. Reagents against one gene are numbered here. A plus sign joins genes that one reagent is predicted to hit. The record does not give: the amount of reagent, the time to read-out.

The first 4 entries as a preview:
Target gene	reagent	E2F firefly, rep 1	Renilla normaliser, rep 1
Gar1	1	90538	4010
RpLP0	1	83950	6081
Glt	1	93485	4024
CG10359	1	78697	4026

Results, repeating the preview:
Target gene	reagent	E2F firefly, rep 1	Renilla normaliser, rep 1
Gar1	1	90538	4010
RpLP0	1	83950	6081
Glt	1	93485	4024
CG10359	1	78697	4026
Sem1	1	1.46e5	5074
RhoGDI	1	69321	3439
stil	1	2931	199
Rcd-1	1	1.21e5	6618
CG12708	1	2.37e5	7331
CG16824	1	94476	3783
Ten-m	1	1.37e5	8093
Ten-m	2	1.44e5	7731
CG7299	1	1.64e5	4783
aly	1	1.05e5	4142
JMJD5	1	1.05e5	4364
EloA	1	73679	3984
CG32176	1	1.63e5	7728
CG32176	2	1.81e5	8157
CG3091	1	1.19e5	5167
CG12446	1	1.45e5	6400
Ptip	1	2.03e5	11214
Ptip	2	1.70e5	6118
CG2121	1	2433	210
CG2121	2	1.41e5	4752
CG17224	1	1.43e5	4932
alpha-Est6	1	77849	3032
CG6900 (retired record)	1	1.30e5	6228
Fpgs2	1	1.48e5	5054
CG2127	1	1.33e5	5075
ArfGAP1	1	1.03e5	5759
CG5290	1	61954	3265
wge	1	61145	3510
wge	2	1.11e5	5931
Eaf6	1	1.04e5	3605
Nup62	1	76111	3186
CG13204	1	92596	4144
CG9095	1	1.49e5	6251
Mccc1	1	1863	1016
Cep290	1	91516	3871
Pxd	1	1.22e5	5932
hui	1	2935	187
dock	1	82744	3694
CG1231	1	92829	3928
CG13272	1	98903	4860
CG13737	1	1.07e5	4809
for	1	1.34e5	4656
for	2	96084	3582
Gyc76C + CG42637	1	78275	3153
CG1965	1	67297	3332
CG7465	1	92235	3528
7B2	1	1.50e5	6509
Ibf1	1	1.27e5	5806
p120ctn	1	1.00e5	4345
Lmx1a	1	1.39e5	7467
Lmx1a	2	76280	4801
CG10137	1	86804	3447
CG10137	2	93153	4226
shg	1	71077	3603
CSN7	1	2469	233
CSN7	2	1.33e5	5492
BBS8	1	1.80e5	7007
RnpS1	1	67348	3325
CG13538	1	1.01e5	4520
RpL14	1	69299	4487
CG2533	1	71898	4183
CG13138	1	1.47e5	5029
Wdr92	1	1.65e5	8584
CG6337	1	98239	4288
lbl	1	1.54e5	8500
CCHa1-R	1	1.60e5	5363
CCHa1-R	2	1.48e5	5212
CG34345	1	1.52e5	5445
Pvf2	1	54369	2597
Pvf2	2	1.52e5	4931
CG12910	1	3119	228
Obp83ef	1	1.29e5	6634
dpr6	1	79120	4422
dpr6	2	1.22e5	6795
dpr6	3	51555	3176
sdk	1	2121	672
CG42633	1	1.38e5	7214
lab	1	1.13e5	5588
CG12983	1	1.31e5	7187
Teh2	1	97523	4049
